# Data from the supplement of paper PMC6411743.
# Sequences of proteins named here, by UniProt entry; tags and fusion partners are left off. A change or cut given only in a name is not applied to a line headed by its entry.
# UniProt P84085: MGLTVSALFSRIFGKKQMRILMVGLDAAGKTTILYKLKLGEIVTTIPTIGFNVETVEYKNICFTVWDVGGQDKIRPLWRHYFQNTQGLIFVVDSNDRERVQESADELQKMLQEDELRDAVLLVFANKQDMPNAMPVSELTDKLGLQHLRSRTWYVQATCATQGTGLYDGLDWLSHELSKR
# UniProt P61081: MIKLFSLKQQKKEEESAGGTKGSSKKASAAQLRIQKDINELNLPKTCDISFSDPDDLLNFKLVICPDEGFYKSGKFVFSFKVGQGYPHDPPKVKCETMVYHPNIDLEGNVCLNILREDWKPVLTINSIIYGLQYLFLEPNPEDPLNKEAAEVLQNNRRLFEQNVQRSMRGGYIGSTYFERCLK
# UniProt Q00013: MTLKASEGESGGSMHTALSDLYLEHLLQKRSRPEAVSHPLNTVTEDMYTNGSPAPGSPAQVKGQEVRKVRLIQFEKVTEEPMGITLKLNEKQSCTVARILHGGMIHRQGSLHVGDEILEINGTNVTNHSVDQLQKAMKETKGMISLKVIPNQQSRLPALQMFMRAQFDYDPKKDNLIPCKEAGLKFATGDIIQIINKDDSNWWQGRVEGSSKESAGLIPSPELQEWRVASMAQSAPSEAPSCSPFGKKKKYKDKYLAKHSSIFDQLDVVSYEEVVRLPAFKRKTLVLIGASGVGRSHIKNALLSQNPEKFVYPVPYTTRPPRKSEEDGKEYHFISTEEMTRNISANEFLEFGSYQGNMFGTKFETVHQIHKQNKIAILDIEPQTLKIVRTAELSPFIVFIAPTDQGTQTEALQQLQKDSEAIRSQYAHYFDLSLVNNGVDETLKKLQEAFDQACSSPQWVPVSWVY
# UniProt Q00266: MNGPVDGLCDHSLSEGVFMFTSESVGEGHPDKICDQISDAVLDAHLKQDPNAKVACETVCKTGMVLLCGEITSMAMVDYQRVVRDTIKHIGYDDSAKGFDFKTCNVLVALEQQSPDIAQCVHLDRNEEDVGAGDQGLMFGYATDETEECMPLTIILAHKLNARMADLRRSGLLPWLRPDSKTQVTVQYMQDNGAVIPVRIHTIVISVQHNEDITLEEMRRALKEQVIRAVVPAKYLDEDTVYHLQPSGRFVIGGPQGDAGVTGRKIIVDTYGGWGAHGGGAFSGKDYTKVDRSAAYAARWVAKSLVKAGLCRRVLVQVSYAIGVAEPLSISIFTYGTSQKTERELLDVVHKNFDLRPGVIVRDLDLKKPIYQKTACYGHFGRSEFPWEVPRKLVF
# UniProt P54198, whole entry: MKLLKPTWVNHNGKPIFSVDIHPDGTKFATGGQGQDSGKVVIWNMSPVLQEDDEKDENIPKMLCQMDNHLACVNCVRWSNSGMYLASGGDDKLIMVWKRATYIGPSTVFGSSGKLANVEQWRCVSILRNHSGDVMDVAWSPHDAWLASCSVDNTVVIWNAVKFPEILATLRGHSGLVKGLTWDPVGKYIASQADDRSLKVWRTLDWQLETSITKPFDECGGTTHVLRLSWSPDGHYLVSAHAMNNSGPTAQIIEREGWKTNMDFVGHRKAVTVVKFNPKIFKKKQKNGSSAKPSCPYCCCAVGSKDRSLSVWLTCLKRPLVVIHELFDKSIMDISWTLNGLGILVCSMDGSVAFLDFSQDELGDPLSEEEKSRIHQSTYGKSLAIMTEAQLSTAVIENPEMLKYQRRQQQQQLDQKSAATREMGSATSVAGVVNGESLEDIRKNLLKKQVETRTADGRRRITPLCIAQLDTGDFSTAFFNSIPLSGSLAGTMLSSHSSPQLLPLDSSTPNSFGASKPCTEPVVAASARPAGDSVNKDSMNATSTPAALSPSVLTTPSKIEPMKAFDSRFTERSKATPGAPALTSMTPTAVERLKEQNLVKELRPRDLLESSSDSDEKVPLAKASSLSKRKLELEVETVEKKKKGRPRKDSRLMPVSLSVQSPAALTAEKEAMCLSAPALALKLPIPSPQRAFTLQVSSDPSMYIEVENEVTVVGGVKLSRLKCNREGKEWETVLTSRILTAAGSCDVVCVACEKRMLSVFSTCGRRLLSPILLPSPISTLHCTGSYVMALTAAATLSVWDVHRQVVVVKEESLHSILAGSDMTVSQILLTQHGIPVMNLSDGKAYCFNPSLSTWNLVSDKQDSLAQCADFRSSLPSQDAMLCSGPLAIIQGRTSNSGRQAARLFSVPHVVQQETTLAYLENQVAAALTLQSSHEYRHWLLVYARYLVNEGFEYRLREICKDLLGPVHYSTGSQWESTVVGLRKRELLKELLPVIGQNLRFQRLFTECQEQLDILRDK
# UniProt P53597: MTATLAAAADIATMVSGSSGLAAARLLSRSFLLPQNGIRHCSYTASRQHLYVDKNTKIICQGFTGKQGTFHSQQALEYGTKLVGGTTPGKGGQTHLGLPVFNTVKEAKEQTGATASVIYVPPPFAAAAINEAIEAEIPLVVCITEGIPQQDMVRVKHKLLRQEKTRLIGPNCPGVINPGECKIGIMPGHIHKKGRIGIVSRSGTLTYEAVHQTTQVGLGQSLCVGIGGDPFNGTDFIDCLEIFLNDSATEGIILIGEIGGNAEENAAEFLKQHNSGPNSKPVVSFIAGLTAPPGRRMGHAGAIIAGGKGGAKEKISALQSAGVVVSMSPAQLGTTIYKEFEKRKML
# UniProt P60953, whole entry, looked up: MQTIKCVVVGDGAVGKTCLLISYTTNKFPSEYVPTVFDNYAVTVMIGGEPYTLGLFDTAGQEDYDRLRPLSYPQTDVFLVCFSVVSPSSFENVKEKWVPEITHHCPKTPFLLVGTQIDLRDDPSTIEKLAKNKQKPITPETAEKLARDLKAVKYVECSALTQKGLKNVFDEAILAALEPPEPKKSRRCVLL
# UniProt P63279, whole entry: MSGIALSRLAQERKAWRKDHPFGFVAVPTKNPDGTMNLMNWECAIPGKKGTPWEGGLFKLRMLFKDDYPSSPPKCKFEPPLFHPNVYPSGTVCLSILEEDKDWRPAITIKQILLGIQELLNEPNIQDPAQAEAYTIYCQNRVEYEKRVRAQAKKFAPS
# UniProt P60602: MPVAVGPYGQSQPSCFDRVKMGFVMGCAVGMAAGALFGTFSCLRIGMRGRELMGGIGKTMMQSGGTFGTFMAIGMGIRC
# UniProt P62942, whole entry: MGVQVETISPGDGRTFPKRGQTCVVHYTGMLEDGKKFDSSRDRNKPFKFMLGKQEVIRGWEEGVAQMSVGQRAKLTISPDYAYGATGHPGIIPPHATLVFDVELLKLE
# UniProt P53609, whole entry, looked up: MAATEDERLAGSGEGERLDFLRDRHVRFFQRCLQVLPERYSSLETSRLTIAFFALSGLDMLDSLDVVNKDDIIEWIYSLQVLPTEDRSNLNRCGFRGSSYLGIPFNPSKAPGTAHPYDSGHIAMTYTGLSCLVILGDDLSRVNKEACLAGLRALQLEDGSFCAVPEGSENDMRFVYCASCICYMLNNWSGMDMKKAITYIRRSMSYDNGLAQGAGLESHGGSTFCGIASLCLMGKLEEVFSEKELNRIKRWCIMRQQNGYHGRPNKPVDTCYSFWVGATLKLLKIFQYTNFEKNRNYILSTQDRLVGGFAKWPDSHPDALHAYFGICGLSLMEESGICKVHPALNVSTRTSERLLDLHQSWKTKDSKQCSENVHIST
# UniProt P67809, whole entry: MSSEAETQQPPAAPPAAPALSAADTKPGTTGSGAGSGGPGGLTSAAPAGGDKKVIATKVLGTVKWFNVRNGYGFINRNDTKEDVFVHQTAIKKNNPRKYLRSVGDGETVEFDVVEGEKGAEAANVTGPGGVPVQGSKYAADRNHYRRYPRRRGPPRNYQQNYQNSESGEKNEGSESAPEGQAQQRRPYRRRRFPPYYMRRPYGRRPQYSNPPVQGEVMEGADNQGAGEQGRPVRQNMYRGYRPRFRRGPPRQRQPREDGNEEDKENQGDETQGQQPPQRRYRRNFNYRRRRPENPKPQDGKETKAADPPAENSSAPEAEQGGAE
# UniProt P57740: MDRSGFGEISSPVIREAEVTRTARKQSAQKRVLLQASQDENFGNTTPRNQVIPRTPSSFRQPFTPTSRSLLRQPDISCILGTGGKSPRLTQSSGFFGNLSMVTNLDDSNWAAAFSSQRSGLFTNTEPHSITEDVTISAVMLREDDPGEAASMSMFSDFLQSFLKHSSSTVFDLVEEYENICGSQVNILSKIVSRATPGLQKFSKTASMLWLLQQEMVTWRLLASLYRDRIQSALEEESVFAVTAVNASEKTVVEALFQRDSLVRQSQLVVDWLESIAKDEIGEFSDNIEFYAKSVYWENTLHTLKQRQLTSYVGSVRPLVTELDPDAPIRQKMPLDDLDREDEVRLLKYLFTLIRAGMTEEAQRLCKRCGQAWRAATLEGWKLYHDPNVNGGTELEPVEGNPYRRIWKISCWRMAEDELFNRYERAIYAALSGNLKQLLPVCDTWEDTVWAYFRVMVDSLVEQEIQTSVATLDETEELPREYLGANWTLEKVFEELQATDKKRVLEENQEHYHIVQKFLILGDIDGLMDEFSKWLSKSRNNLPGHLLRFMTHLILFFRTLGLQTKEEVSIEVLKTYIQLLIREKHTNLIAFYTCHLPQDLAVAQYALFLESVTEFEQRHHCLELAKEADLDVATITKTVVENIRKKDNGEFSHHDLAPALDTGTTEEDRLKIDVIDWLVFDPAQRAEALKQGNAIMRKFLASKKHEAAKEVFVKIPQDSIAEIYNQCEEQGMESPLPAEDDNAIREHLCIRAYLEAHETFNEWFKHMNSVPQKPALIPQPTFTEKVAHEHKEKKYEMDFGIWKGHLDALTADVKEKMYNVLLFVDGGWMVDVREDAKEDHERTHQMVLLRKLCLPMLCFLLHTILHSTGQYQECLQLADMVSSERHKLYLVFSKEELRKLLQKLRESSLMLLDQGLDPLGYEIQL
# UniProt P78318: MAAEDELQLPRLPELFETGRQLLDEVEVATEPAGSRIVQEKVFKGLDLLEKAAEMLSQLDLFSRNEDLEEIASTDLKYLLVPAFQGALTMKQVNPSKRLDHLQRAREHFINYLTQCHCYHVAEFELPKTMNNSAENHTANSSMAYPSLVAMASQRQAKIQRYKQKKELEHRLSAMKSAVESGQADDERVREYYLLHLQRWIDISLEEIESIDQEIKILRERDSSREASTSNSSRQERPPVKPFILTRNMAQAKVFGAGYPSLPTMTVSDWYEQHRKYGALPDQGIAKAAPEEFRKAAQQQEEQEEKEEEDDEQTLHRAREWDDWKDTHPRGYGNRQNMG
# UniProt P53041: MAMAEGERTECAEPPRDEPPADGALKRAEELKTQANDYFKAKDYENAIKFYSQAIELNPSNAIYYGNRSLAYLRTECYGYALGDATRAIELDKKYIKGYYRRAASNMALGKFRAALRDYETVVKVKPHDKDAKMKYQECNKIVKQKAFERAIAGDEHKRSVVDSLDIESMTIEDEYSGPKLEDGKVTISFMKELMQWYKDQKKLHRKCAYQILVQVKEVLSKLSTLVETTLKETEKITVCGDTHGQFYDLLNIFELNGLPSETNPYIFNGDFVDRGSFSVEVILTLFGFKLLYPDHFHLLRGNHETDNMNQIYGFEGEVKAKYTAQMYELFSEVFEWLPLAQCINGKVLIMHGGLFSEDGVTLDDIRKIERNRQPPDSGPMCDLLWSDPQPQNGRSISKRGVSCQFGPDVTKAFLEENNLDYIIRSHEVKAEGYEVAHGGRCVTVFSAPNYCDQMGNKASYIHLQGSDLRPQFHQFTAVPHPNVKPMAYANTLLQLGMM
# UniProt P53671: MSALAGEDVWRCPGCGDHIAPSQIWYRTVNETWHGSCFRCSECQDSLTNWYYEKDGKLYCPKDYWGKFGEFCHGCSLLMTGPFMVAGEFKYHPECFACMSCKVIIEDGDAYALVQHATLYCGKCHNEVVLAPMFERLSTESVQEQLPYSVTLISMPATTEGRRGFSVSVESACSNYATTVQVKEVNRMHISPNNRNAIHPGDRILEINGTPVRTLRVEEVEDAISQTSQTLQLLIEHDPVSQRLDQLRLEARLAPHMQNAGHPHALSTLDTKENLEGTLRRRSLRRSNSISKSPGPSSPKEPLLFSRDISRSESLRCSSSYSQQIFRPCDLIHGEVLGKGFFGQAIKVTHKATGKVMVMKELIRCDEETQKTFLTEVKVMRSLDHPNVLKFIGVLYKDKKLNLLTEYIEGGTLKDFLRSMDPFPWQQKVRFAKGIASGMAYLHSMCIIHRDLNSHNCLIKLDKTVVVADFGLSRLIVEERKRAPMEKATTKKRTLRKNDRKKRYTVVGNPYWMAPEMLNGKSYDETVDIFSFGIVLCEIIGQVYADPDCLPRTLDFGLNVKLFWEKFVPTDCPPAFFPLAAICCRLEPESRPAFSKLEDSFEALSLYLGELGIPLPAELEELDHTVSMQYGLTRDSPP
# UniProt P53367: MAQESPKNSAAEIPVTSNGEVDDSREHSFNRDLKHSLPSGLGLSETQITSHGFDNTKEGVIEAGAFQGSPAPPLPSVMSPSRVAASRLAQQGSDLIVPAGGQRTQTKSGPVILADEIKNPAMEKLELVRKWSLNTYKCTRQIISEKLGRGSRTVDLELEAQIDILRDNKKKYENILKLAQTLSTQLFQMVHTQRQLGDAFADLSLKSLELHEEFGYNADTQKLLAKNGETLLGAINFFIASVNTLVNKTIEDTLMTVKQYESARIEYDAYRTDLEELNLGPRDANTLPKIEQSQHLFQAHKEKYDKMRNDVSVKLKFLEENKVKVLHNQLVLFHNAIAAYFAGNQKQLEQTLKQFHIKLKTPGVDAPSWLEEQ
# ± gives the standard deviation of the averaged measurements. The entries are a selection whose mix differs from that of the whole data set.
# Compound: Nc1ncnc2c1ncn2[C@@H]1O[C@H](COP(=O)(O)OP(=O)(O)OP(=O)(O)O)[C@@H](O)[C@H]1O [adenosine triphosphate]
# Assay: NP40-soluble protein abundance relative to vehicle (solubility fold change) (ratio); higher = more soluble protein in presence of ATP
# How it was run: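 Jurkat crude lysate prepared with a Dounce homogeniser was treated at eight concentrations spanning 0.1 to 10 mM, 10 min at room temperature then 3 min at 37 °C. Solubilisation with 0.8% NP40 and benzonase and ultracentrifugation preceded TMT labelling of the supernatant for LC-MS/MS. Fold change against the detergent-processed vehicle was determined per replicate from vsn-normalised intensities, across three independent experiments.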
Target,NP40-soluble protein abundance (concentration: 1mM),NP40-soluble protein abundance (concentration: 2mM),NP40-soluble protein abundance (concentration: 4mM),NP40-soluble protein abundance (concentration: 6mM),NP40-soluble protein abundance (concentration: 8mM),NP40-soluble protein abundance (concentration: 10mM)
FKBP3 (UniProt Q00688),0.977 ± 0.074,0.954 ± 0.021,0.908 ± 0.025,0.998 ± 0.022,0.918 ± 0.033,0.934 ± 0.049
UniProt P62753,0.878 ± 0.07,0.805 ± 0.13,0.746 ± 0.14,0.727 ± 0.18,0.659 ± 0.15,0.745 ± 0.14
CCT2 (UniProt P78371),1.01 ± 0.034,0.926 ± 0.031,0.85 ± 0.029,0.87 ± 0.12,0.872 ± 0.058,0.836 ± 0.048
UniProt P84022,0.988 ± 0.076,1.01 ± 0.05,1.04 ± 0.06,1.05 ± 0.017,1.01 ± 0.056,1.06 ± 0.038
UniProt P84085,1.04 ± 0.13,0.964 ± 0.06,0.947 ± 0.022,0.918 ± 0.091,0.916 ± 0.041,0.92 ± 0.015
UniProt P61081,0.982 ± 0.03,0.962 ± 0.021,0.919 ± 0.027,0.978 ± 0.029,0.948 ± 0.015,0.931 ± 0.028
MRPS35 (UniProt P82673),0.976 ± 0.029,0.911 ± 0.072,0.86 ± 0.075,0.895 ± 0.23,0.894 ± 0.14,0.824 ± 0.11
UniProt P78563 and related entries,1.04 ± 0.044,1.09 ± 0.051,1.07 ± 0.081,1.08 ± 0.1,1.11 ± 0.11,1.11 ± 0.082
UniProt Q00013 and related entries,1.01 ± 0.018,1.034 ± 0.0068,1.01 ± 0.024,1.03 ± 0.038,1.1 ± 0.11,1.01 ± 0.033
UniProt P60604 and related entries,1.03 ± 0.085,1.01 ± 0.1,1.03 ± 0.12,0.96 ± 0.11,1.04 ± 0.11,0.969 ± 0.12
UniProt P78344 and related entries,0.967 ± 0.022,1 ± 0.025,1.01 ± 0.044,1.05 ± 0.035,1.06 ± 0.011,1.11 ± 0.013
P62158 (UniProt P0DP23),1.17 ± 0.13,1.14 ± 0.049,1.19 ± 0.1,1.25 ± 0.084,1.21 ± 0.033,1.14 ± 0.16
MAT1A (UniProt Q00266),1.01 ± 0.14,0.986 ± 0.11,1.02 ± 0.11,0.971 ± 0.14,1.01 ± 0.099,0.977 ± 0.1
TMSB4X (UniProt P62328),0.949 ± 0.27,0.699 ± 0.064,0.826 ± 0.14,0.892 ± 0.096,0.741 ± 0.071,0.747 ± 0.11
UniProt P62280,0.87 ± 0.066,0.782 ± 0.13,0.719 ± 0.13,0.705 ± 0.15,0.652 ± 0.14,0.727 ± 0.12
MRPS9 (UniProt P82933),1.02 ± 0.043,0.953 ± 0.053,0.943 ± 0.071,0.94 ± 0.17,0.941 ± 0.12,0.893 ± 0.094
UniProt P61981,1.09 ± 0.32,0.8 ± 0.18,1.03 ± 0.2,0.797 ± 0.2,0.937 ± 0.058,0.721 ± 0.17
HIRA (UniProt P54198),1.06 ± 0.053,1.04 ± 0.06,1 ± 0.085,1.07 ± 0.15,1.06 ± 0.057,1.2 ± 0.098
UniProt Q00536 and related entries,0.955 ± 0.058,0.97 ± 0.072,0.9 ± 0.04,0.948 ± 0.016,0.968 ± 0.012,0.947 ± 0.019
SUCLG1 (UniProt P53597),0.971 ± 0.018,0.954 ± 0.018,0.901 ± 0.022,0.988 ± 0.033,0.9458 ± 0.0091,0.94 ± 0.02

Target,NP40-soluble protein abundance (concentration: 1mM),NP40-soluble protein abundance (concentration: 2mM),NP40-soluble protein abundance (concentration: 4mM),NP40-soluble protein abundance (concentration: 6mM),NP40-soluble protein abundance (concentration: 8mM),NP40-soluble protein abundance (concentration: 10mM)
UniProt P60953 and related entries,0.93 ± 0.076,0.895 ± 0.064,0.915 ± 0.033,0.911 ± 0.054,0.916 ± 0.052,0.893 ± 0.016
UniProt P60520,0.96 ± 0.12,0.955 ± 0.09,0.917 ± 0.079,0.919 ± 0.15,0.932 ± 0.11,0.9 ± 0.12
UniProt P63279,0.954 ± 0.1,0.984 ± 0.05,0.969 ± 0.043,0.985 ± 0.065,0.967 ± 0.02,0.903 ± 0.065
ROMO1 (UniProt P60602),0.833 ± 0.05,1.01 ± 0.1,0.937 ± 0.097,0.83 ± 0.08,0.873 ± 0.17,1.01 ± 0.04
UniProt P78330 and related entries,0.906 ± 0.03,0.921 ± 0.035,0.895 ± 0.015,0.9 ± 0.08,0.891 ± 0.056,0.882 ± 0.048
UniProt P55347 and related entries,0.979 ± 0.07,0.989 ± 0.066,0.992 ± 0.063,1.011 ± 0.0084,1 ± 0.074,0.946 ± 0.066
UniProt P63313,0.914 ± 0.12,0.813 ± 0.01,0.916 ± 0.054,0.957 ± 0.071,0.815 ± 0.018,0.851 ± 0.12
UniProt P62249,0.848 ± 0.043,0.774 ± 0.1,0.748 ± 0.099,0.689 ± 0.089,0.65 ± 0.096,0.709 ± 0.092
RAD23B (UniProt P54727),0.894 ± 0.11,0.896 ± 0.059,0.867 ± 0.073,0.929 ± 0.095,0.861 ± 0.014,0.812 ± 0.068
FKBP1A (UniProt P62942),1.11 ± 0.17,0.987 ± 0.1,0.986 ± 0.028,1.02 ± 0.048,0.968 ± 0.018,0.957 ± 0.059
UniProt P62834,1.06 ± 0.048,1.03 ± 0.021,1.05 ± 0.084,1.09 ± 0.051,1.02 ± 0.099,1.03 ± 0.11
RAB4B (UniProt P61018),0.956 ± 0.053,0.946 ± 0.011,0.965 ± 0.028,0.904 ± 0.046,0.91 ± 0.029,0.968 ± 0.011
XIAP (UniProt P98170),0.996 ± 0.018,1.02 ± 0.035,1.03 ± 0.045,1 ± 0.033,1.02 ± 0.019,1.02 ± 0.037
PGGT1B (UniProt P53609),1.03 ± 0.065,1.07 ± 0.029,1.05 ± 0.17,0.881 ± 0.24,1.02 ± 0.21,1.09 ± 0.12
UniProt P54886 and related entries,0.993 ± 0.066,0.996 ± 0.053,0.978 ± 0.052,0.935 ± 0.073,1 ± 0.035,0.986 ± 0.048
UniProt P56181 and related entries,0.984 ± 0.039,0.945 ± 0.031,0.931 ± 0.029,0.967 ± 0.09,0.93 ± 0.036,0.926 ± 0.025
YBX1 (UniProt P67809),1.01 ± 0.097,1.01 ± 0.035,0.995 ± 0.051,1.06 ± 0.067,0.977 ± 0.038,0.96 ± 0.025
UniProt P62081,0.974 ± 0.045,0.94 ± 0.082,0.944 ± 0.088,0.911 ± 0.078,0.888 ± 0.067,0.943 ± 0.061
UniProt P63010 and related entries,1.03 ± 0.058,1.05 ± 0.036,1.02 ± 0.025,1.06 ± 0.049,1.04 ± 0.039,1.07 ± 0.023
UniProt P56159 and related entries,0.929 ± 0.094,0.95 ± 0.1,0.937 ± 0.034,0.95 ± 0.12,0.929 ± 0.076,0.931 ± 0.1

# Single records (already shown).
# UniProt P62834 in the list: NP40-soluble protein abundance (concentration: 1mM): 1.06 ± 0.048; NP40-soluble protein abundance (concentration: 2mM): 1.03 ± 0.021; NP40-soluble protein abundance (concentration: 4mM): 1.05 ± 0.084; NP40-soluble protein abundance (concentration: 6mM): 1.09 ± 0.051; NP40-soluble protein abundance (concentration: 8mM): 1.02 ± 0.099; NP40-soluble protein abundance (concentration: 10mM): 1.03 ± 0.11
# UniProt P56159 and related entries in the list: NP40-soluble protein abundance (concentration: 1mM): 0.929 ± 0.094; NP40-soluble protein abundance (concentration: 2mM): 0.95 ± 0.1; NP40-soluble protein abundance (concentration: 4mM): 0.937 ± 0.034; NP40-soluble protein abundance (concentration: 6mM): 0.95 ± 0.12; NP40-soluble protein abundance (concentration: 8mM): 0.929 ± 0.076; NP40-soluble protein abundance (concentration: 10mM): 0.931 ± 0.1
# UniProt P62081 in the list: NP40-soluble protein abundance (concentration: 1mM): 0.974 ± 0.045; NP40-soluble protein abundance (concentration: 2mM): 0.94 ± 0.082; NP40-soluble protein abundance (concentration: 4mM): 0.944 ± 0.088; NP40-soluble protein abundance (concentration: 6mM): 0.911 ± 0.078; NP40-soluble protein abundance (concentration: 8mM): 0.888 ± 0.067; NP40-soluble protein abundance (concentration: 10mM): 0.943 ± 0.061

# Following part

Target,NP40-soluble protein abundance (concentration: 1mM),NP40-soluble protein abundance (concentration: 2mM),NP40-soluble protein abundance (concentration: 4mM),NP40-soluble protein abundance (concentration: 6mM),NP40-soluble protein abundance (concentration: 8mM),NP40-soluble protein abundance (concentration: 10mM)
GFER (UniProt P55789),1.02 ± 0.092,0.979 ± 0.047,1.01 ± 0.06,0.992 ± 0.13,1.03 ± 0.076,0.826 ± 0.14
UniProt P78410 and related entries,0.97 ± 0.018,0.932 ± 0.044,0.921 ± 0.031,0.937 ± 0.075,0.893 ± 0.037,0.889 ± 0.061
SLC16A1 (UniProt P53985),0.974 ± 0.07,0.97 ± 0.074,0.932 ± 0.034,1.03 ± 0.089,0.9688 ± 0.0072,0.947 ± 0.018
NUP107 (UniProt P57740),1.08 ± 0.061,1.04 ± 0.047,1.06 ± 0.06,1.05 ± 0.065,1.1 ± 0.069,1.11 ± 0.056
UniProt P62273,0.833 ± 0.1,0.812 ± 0.11,0.75 ± 0.13,0.719 ± 0.15,0.584 ± 0.067,0.716 ± 0.061
IGBP1 (UniProt P78318),1.01 ± 0.095,0.99 ± 0.025,0.999 ± 0.034,1.02 ± 0.073,1.01 ± 0.05,0.927 ± 0.087
PEX3 (UniProt P56589),1.015 ± 0.0073,1.02 ± 0.03,0.982 ± 0.012,0.981 ± 0.084,0.986 ± 0.05,0.966 ± 0.013
EIF6 (UniProt P56537),1.01 ± 0.084,1.06 ± 0.083,1.04 ± 0.042,0.976 ± 0.1,0.99 ± 0.052,0.968 ± 0.049
PPP5C (UniProt P53041),0.993 ± 0.059,0.978 ± 0.041,0.967 ± 0.043,0.953 ± 0.075,0.982 ± 0.057,0.968 ± 0.047
UniProt P53671 and related entries,1.15 ± 0.094,1.1 ± 0.027,1.1 ± 0.028,1.06 ± 0.1,1.14 ± 0.064,1.13 ± 0.024
MRPS10 (UniProt P82664),1.09 ± 0.073,0.984 ± 0.1,0.961 ± 0.17,0.897 ± 0.21,1.02 ± 0.22,0.861 ± 0.13
UniProt P54136 and related entries,1.05 ± 0.086,0.978 ± 0.038,0.957 ± 0.033,0.94 ± 0.054,1.01 ± 0.037,0.96 ± 0.046
UniProt P78310 and related entries,0.944 ± 0.039,0.977 ± 0.037,0.952 ± 0.061,0.977 ± 0.048,0.9334 ± 0.0072,0.893 ± 0.053
UniProt P63272,1.002 ± 0.0012,0.972 ± 0.011,1.02 ± 0.1,1.05 ± 0.1,0.977 ± 0.071,0.933 ± 0.014
UniProt P61289 and related entries,1.1 ± 0.3,0.773 ± 0.33,1.05 ± 0.27,0.727 ± 0.3,0.886 ± 0.02,0.704 ± 0.29
RABGGTB (UniProt P53611),1.07 ± 0.17,1.03 ± 0.071,0.983 ± 0.11,0.944 ± 0.22,1.01 ± 0.1,1 ± 0.051
UniProt P53367 and related entries,0.965 ± 0.029,0.974 ± 0.016,0.962 ± 0.018,0.952 ± 0.022,0.959 ± 0.038,0.916 ± 0.027
MRPS36 (UniProt P82909),0.996 ± 0.16,0.963 ± 0.19,1.02 ± 0.099,1.1 ± 0.18,0.936 ± 0.093,0.935 ± 0.16
UniProt P57076,0.965 ± 0.036,0.977 ± 0.039,0.919 ± 0.05,0.95 ± 0.041,0.946 ± 0.051,0.913 ± 0.047
S100A10 (UniProt P60903),0.911 ± 0.064,0.884 ± 0.063,0.836 ± 0.086,0.881 ± 0.083,0.861 ± 0.032,0.795 ± 0.13
